This series in a line: general procedure: Fmoc solid-phase peptide synthesis; Fmoc-Cys(Trt) Wang resin; HBTU or DIC, if necessary HOBT. The conditions noted are these: whole synthesis, scale 25 nM.

Where no end group is shown, it is not given here. Bounds are passed on as bounds.

For “CWLDVC-OH (cysteine pairing not given here)”, the isolated mass was 10.2 mg. In addition, the “final HPLC purity” value (analytical HPLC) was greater than 98%.

These data come from patent US6087330A (Texas Biotechnology Corporation, priority 1998, dated 2000).
